Columns and labels:
[1] = quenching of background fluorescence of the sodium indicator ANG-2 in NaV1.7-HEK cells (FLIPR); settings: quencher 1 mM, NaV1.7-HEK cells loaded with ANG-2, 60–100 s after addition; no quencher 2557 ± 34, wash 1539 ± 44
[2] = quenching of background fluorescence of the calcium indicator fluo-4 in SH-SY5Y cells (FLIPR); design: species or system human; settings: quencher 1 mM, SH-SY5Y cells loaded with fluo-4; no quencher 4243 ± 100

SMILES | background fluorescence after addition of food dye [1] [RFU] | background fluorescence after addition of quencher [2] [RFU]
Cc1c(C(=O)O)c(O)cc2c1C(=O)c1c(O)c(C3O[C@H](CO)[C@@H](O)[C@H](O)[C@H]3O)c(O)c(O)c1C2=O (stereo in doubt) [Carmine] | 1526 ± 71 | 
COc1cc(S(=O)(=O)[O-])c(C)cc1N=Nc1c(O)ccc2cc(S(=O)(=O)[O-])ccc12.[Na+].[Na+] [Allura Red, Allura Red AC] | 1505 ± 39 | 980 ± 126
O=S(=O)([O-])c1ccc2c(N=Nc3ccc(S(=O)(=O)[O-])c4ccccc34)c(O)c(S(=O)(=O)[O-])cc2c1.[Na+].[Na+].[Na+] [Amaranth] | 1451 ± 17 | 1166 ± 40
CC(=O)Nc1ccc(S(=O)(=O)[O-])c2cc(S(=O)(=O)[O-])c(N=Nc3ccc(N=Nc4ccc(S(=O)(=O)[O-])cc4)c4ccc(S(=O)(=O)[O-])cc34)c(O)c12.[Na+].[Na+].[Na+].[Na+] [Brilliant Black BN] | 1459 ± 34 | 885 ± 12
O=S(=O)([O-])c1cc(S(=O)(=O)[O-])c2c(N=Nc3ccc(S(=O)(=O)[O-])c4ccccc34)c(O)ccc2c1.[Na+].[Na+].[Na+] [Ponceau 4R] | 1575 ± 26 | 848 ± 11
